The results in this text go back to publication PMC7819943, “Rice protein-binding microarrays: a tool to detect cis-acting elements near promoter regions in rice”.

Some of the results follow.

This assay concerns the target T1, OsSMF1 (Oryza sativa, UniProt Q6ZLB0 1-436).
T1 sequence: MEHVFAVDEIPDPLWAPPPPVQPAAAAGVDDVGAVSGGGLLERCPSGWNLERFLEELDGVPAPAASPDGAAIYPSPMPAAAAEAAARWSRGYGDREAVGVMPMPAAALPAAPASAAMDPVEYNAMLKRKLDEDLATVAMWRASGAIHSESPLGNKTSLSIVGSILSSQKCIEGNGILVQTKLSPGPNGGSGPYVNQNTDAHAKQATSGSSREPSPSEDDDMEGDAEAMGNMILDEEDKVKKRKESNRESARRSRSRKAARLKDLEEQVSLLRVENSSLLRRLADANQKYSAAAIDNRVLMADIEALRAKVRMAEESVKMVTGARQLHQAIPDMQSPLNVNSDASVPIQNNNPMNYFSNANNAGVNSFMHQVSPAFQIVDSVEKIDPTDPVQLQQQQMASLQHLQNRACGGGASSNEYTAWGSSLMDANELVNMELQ
Description: protein-binding microarray (RPBM); PBS, 2% BSA, 51.3 ng/ul salmon testes DNA, 50 uM zinc acetate, 200 nM TF, 25 C, 1 h; high values mean tight binding. The note with it: protein: recombinant; tags: N-terminal polyhistidine and DsRed monomer fusion (pET32a); chain copies: 2; label: CyDye5-dUTP incorporated in the synthesized complementary strand; 3' TTTTT single-stranded linker to array surface; dsDNA, one strand shown. Summed up:
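Binding signal here means per-feature fluorescence intensity in arbitrary units. The values were read on an Axon 4000B scanner after a custom Agilent array, double-stranded by primer extension with Cy5-dUTP, was incubated with 200 nM protein at 25 °C for 1 h in PBS with 2% BSA, salmon testes DNA and 50 µM zinc acetate, then washed. The proteins were transcription factors with an N-terminal polyhistidine tag and DsRed, expressed in E. coli BL21-CodonPlus and purified on Ni–NTA.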
For the sequence “ATCCCGTTGCCGTCCTCAACACCTTCGCCGGTGTCGAAACCGGAGTCACCTAGTGCAG”, the binding signal is 4660 fluorescence intensity (a.u.).
In the case of “TTACACCCCACTTACACATCACTTACATATGTAATTAATACGGAGTCACCTAGTGCAG” it was 3420 fluorescence intensity (a.u.); in that of “GGCTAGCGTGGGCTCCACGTGCGCTGGTTATGCATGTAGCCGGAGTCACCTAGTGCAG”, 9540 fluorescence intensity (a.u.); in that of “TTGTTCTACTCCTCCTTGCTGGTGGTGATGTAGGACGGATCGGAGTCACCTAGTGCAG”, 3230 fluorescence intensity (a.u.).
In the case of “TCTTACTCCATTTCGTAGTAGTTTGCACATCACCAAACATCGGAGTCACCTAGTGCAG” it was 4060 fluorescence intensity (a.u.); in that of “GATGGTAGGTATGCATATGACGCATATCCTACCTGACGGACGGAGTCACCTAGTGCAG”, 3450 fluorescence intensity (a.u.).
Consider “ACTCGAAGCGTCGGTCTGCCCTGCAACCAGCTGACGTCAGCGGAGTCACCTAGTGCAG”, for which the binding signal was 20800 fluorescence intensity (a.u.).
Take “ATTATCAAATTTCTCGTGCATATGTCACTCGTATTTGTTGCGGAGTCACCTAGTGCAG”: the binding signal was 4990 fluorescence intensity (a.u.).
In the case of “CCATGCTGTCAAATCAGCAACTAACGAGGCATAATCTCGACGGAGTCACCTAGTGCAG” it was 38500 fluorescence intensity (a.u.); in that of “AAATAAGAGTCACAAGAGAAGGCAGACTGAGCTCACAGAACGGAGTCACCTAGTGCAG”, 30900 fluorescence intensity (a.u.).
For the sequence “GTTGAATTACCTTAGCGTATATGGAAGCAACCTGTGTACGCGGAGTCACCTAGTGCAG”, the binding signal is 34700 fluorescence intensity (a.u.).
The result for “CGTCCACCATCGCCCCGCTCGTCTCAGCCCCGTCGTCGCGCGGAGTCACCTAGTGCAG” reads 3170 fluorescence intensity (a.u.); that for “GCAGAGGAACCTTGGTAGTAGTATTTGGTTTCTCAGAAGTCGGAGTCACCTAGTGCAG”, 52600 fluorescence intensity (a.u.).
As for “GGAGAGCTCCGGGAAGACGCGCGCTGACGCGGCCTCCCTGCGGAGTCACCTAGTGCAG”, the binding signal was 8860 fluorescence intensity (a.u.).
The result for “TCCATAGGTATCTCTCCACGTCCCACTAGGTGTACAAACCCGGAGTCACCTAGTGCAG” reads 4110 fluorescence intensity (a.u.).
The result for “CCCCTGTTGGCCGTCGGACACGCACGCCGCACTCGCCGCGCGGAGTCACCTAGTGCAG” reads 6190 fluorescence intensity (a.u.).
In the case of “AAACGAAATTATTGTATGTATTACTTCTTAATAGGTAATACGGAGTCACCTAGTGCAG” it was 3560 fluorescence intensity (a.u.).
“TTTGAGGTTTGGCCACGACGACGCCTGCCTATAAATACCACGGAGTCACCTAGTGCAG”: the binding signal is 4060 fluorescence intensity (a.u.).
In the case of “TAAGCATAATTGCTCCATGATTTGGCAATGTGATGCTACACGGAGTCACCTAGTGCAG” it was 4240 fluorescence intensity (a.u.); in that of “GCTGAGATATAGTTGCCACGTAAGCGCCACGTCAATGCTACGGAGTCACCTAGTGCAG”, 33000 fluorescence intensity (a.u.).
With “CGCCGAGCTGCCACGCTCGCGTCGCGTCCAGATGCGCGCGCGGAGTCACCTAGTGCAG”, the binding signal was 3680 fluorescence intensity (a.u.).
The result for “GGGGTGACGCCAGCGGGCACGTGCCCCACACGTGCGGTCCCGGAGTCACCTAGTGCAG” reads 4160 fluorescence intensity (a.u.); that for “CCTGGGCTGCCTGTTCATCATCACGCGTTTGATGTTCACTCGGAGTCACCTAGTGCAG”, 3710 fluorescence intensity (a.u.).
In the case of “CGCTGACACTGCCGCTGGATCTCGTTTGTGCGTCTGCAATCGGAGTCACCTAGTGCAG” it was 3850 fluorescence intensity (a.u.); in that of “GGCGCGTGGGAGGACGCCAAGCCCAAGGGGCAGGGCACGTCGGAGTCACCTAGTGCAG”, 3140 fluorescence intensity (a.u.); in that of “ATACCTGGAAGTATAACCACACACGTTTATGACGTCATCACGGAGTCACCTAGTGCAG”, 25700 fluorescence intensity (a.u.).
In the case of “CAACCCTGACGTCACGTAAGCTTTTGCCAATTCCGCCAACCGGAGTCACCTAGTGCAG” it was 9890 fluorescence intensity (a.u.); in that of “GGGCGCCCTCCGGTTTGAATTGCGAAGGAATTTGCGAGCTCGGAGTCACCTAGTGCAG”, 20100 fluorescence intensity (a.u.).
For “GTCGGACACGGGGCAGTACCCCGCGAGCGTCACGGCGGCGCGGAGTCACCTAGTGCAG”, the binding signal is 3420 fluorescence intensity (a.u.).
The result for “CCCACCCACTACCTCTCTCTCCTCAATCTCCTCTCTACCCCGGAGTCACCTAGTGCAG” reads 19500 fluorescence intensity (a.u.).
In the case of “GAAGCAATTGGGCGGTGTCGATCGTTGACAATGCTCTACTCGGAGTCACCTAGTGCAG” it was 3550 fluorescence intensity (a.u.).
Turning to “CCGAAAATATCACGCGGCTTATGGCCATCGCCCACGTGGCCGGAGTCACCTAGTGCAG”, the binding signal was 8780 fluorescence intensity (a.u.).
The result for “ACCCATAGTGTCCATAAGTAGTGTCTATGGTGCCATGTCACGGAGTCACCTAGTGCAG” reads 6680 fluorescence intensity (a.u.).
With “ATTTATCGTACACCAAGAATCATACATGCAGACACGCAAACGGAGTCACCTAGTGCAG”, the binding signal is 3220 fluorescence intensity (a.u.).
Consider “AGTAGGTTGGTGCGTCACATTACTCGGCAGCGGACACATTCGGAGTCACCTAGTGCAG”, for which the binding signal is 4690 fluorescence intensity (a.u.).
“CCTCAGTCGCTCCAAGGCATCCTCCTCGCGTCGTCACTCGCGGAGTCACCTAGTGCAG”: the binding signal was 3770 fluorescence intensity (a.u.).
The result for “GAACGACTTTCTATTCCAATAGATAACACTACCCCTAGTACGGAGTCACCTAGTGCAG” reads 3460 fluorescence intensity (a.u.); that for “CAAGTAGTTTGTGAATTGTGACCATCAAACAGATTCGTGTCGGAGTCACCTAGTGCAG”, 3640 fluorescence intensity (a.u.).
Regarding “TCAGCTCCACTACCAGACAAAACACATCACCCAAAACCCCCGGAGTCACCTAGTGCAG”, the binding signal was 4330 fluorescence intensity (a.u.).
In the case of “TTGACATGTGGGGCCTATTGGACACGTCAGTCAAAATCGGCGGAGTCACCTAGTGCAG” it was 7020 fluorescence intensity (a.u.).
In the case of “TTACGCCTTATTAGGGTGTAGCCCACGGCCCACCTTTCCGCGGAGTCACCTAGTGCAG” it was 22300 fluorescence intensity (a.u.); in that of “AGTGAGCTCGCGTGATGAGCTTCGGTGGCATGTTCGATGGCGGAGTCACCTAGTGCAG”, 3210 fluorescence intensity (a.u.).
